The source of these data is publication PMC11076679.

Results are given in words; binding and its absence hold for the method and conditions named. In cells and extracts the contact can be indirect. These calls come from enrichment with a bait or labelling near it, and not all partners need be listed. A no says only that the protein was not detected with the bait.

The target in the assay is T1, synthetic peptide corresponding to the nonphosphorylated ITIM of Ly49Q (…).
T1 sequence (peptide, conjugated to SulfoLink resin): CGGMSEQEVTYSTVRFHK
Kind of assay: affinity purification with mass spectrometry; peptides conjugated to SulfoLink resin, incubated with Raw264.7 lysates (50 mM Tris-HCl pH 7.5, 1 mM EDTA, 10% glycerol, 150 mM NaCl, 1% NP-40) 1 h at 4°C; SDS-PAGE, silver staining, bands specific for the phosphorylated peptide analysed by LC-MS/MS; only the target purified.

As for “Shc (endogenous) (mouse (endogenous in RAW264.7))”, the binding entry was “no binding”.
